PubChem BioAssay AID504847 (National Center for Advancing Translational Sciences (NCATS), 2011)
Screen size: about 400,000 compounds; about 3,700 (0.93%) were called active. Inconclusive results, whose numbers are uncertain, are shown with a selection of clear calls. Calls follow the shape of the dose curve; as a rule, active = well fitted inhibition curve with a large enough effect; inconclusive = small, poorly fitted or top-dose-only effect, or another doubt; inactive = no such curve, though single readings can be large or run the other way. Potencies beside an inconclusive call are fits to weak or partial responses and may not hold up.

Chains of the proteins cited; added tags and fusions are not shown.
UniProt P11473, whole entry, looked up: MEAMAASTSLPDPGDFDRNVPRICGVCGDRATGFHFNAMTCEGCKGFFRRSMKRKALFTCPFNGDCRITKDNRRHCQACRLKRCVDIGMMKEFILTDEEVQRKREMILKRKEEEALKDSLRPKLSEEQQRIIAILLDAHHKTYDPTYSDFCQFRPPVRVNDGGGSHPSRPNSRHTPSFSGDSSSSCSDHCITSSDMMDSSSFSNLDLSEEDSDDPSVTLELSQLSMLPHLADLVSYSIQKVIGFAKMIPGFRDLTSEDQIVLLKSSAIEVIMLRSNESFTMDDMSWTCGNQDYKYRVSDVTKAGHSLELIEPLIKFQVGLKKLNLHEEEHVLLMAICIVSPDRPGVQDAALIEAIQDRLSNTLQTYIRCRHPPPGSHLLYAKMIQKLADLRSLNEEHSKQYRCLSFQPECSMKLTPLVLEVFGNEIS

What follows are compounds tested against Vitamin D3 receptor (Homo sapiens) (UniProt P11473) (assay: Inhibitors of the vitamin D receptor (VDR): qHTS). Details: VDR-SRC2-3 peptide fluorescence polarization, 2 h; max response, negative = inhibition: stronger effect = lower value.
In short: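 After 23 nl compound addition and a short centrifugation, plates sat for 2 hours at ambient temperature; polarization of fluorescence then indicated loss of VDR binding to peptide SRC2-3.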
% is scaled to controls: 0 for no effect and ±100 for the full control effect; potency is read from the fitted curve at half-maximal effect.

**Q.** With `Cc1ccc(CSCC(=O)Nc2cc(S(=O)(=O)N3CCOCC3)ccc2OC(C)C)cc1` as the compound, how does the max response, negative = inhibition read?
**A.** The max response, negative = inhibition was inactive: -1.39%.

**Q.** For `CC(C)(Oc1ccc(Br)cc1)C(=O)Nc1cc(-c2nc3ccccc3[nH]2)ccc1Cl`, which max response, negative = inhibition is on record?
**A.** The max response, negative = inhibition was inactive: -17.7%.

**Q.** Which Potency does the source give for `COCCn1c(SCC(=O)Nc2cccc(S(N)(=O)=O)c2)nc2cc(Cl)ccc2c1=O` here?
**A.** Its Potency is inconclusive: 39.8 µM [inhibitor, single point].

**Q.** Which Potency does the source give for `Cc1c(C(=O)N2CCCCC2)c(S(=O)(=O)N2CCC(C)CC2)c(C)n1C` here?
**A.** Its Potency is inconclusive: 39.8 µM [inhibitor, single point].

**Q.** How did the Potency turn out when `Cc1ccc(-c2ccc(/C=C3\C(=O)ON=C3c3ccccc3)o2)c([N+](=O)[O-])c1` was run?
**A.** The Potency was active: 28.2 µM.

**Q.** `S=c1[nH]nc(NCCCN2CCOCC2)s1` was tested. Which Potency did it give?
**A.** Its Potency is active: 89.1 µM.

**Q.** `Cc1ccc(C2C(C(N)=S)=C(N)OC3=C2C(=O)CC(C)(C)C3)cc1` (centres undefined) was tested. Which Potency did it give?
**A.** Its Potency is inconclusive: 89.1 µM [inhibitor, single point].

**Q.** For `COc1ccccc1/C=C/C=N/n1c(-c2cc(C)[nH]n2)n[nH]c1=S`, which max response, negative = inhibition is on record?
**A.** Its max response, negative = inhibition is inactive: 1.74%.

**Q.** `CCCC1NC(C(=O)O)Cc2c1[nH]c1ccccc21` (centres undefined) was tested. Which Potency did it give?
**A.** Its Potency is inconclusive: 79.4 µM [inhibitor, partial curve].

**Q.** Which max response, negative = inhibition does the source give for `CCN1CCN(C(c2ccc(SC)cc2)c2c(O)cc(C)n(CCOC)c2=O)CC1` (centres undefined) here?
**A.** Its max response, negative = inhibition is inactive: -3.36%.

**Q.** Which Potency does the source give for `CCCCCC(=O)Nc1cc(S(=O)(=O)N2CCCCC2)ccc1N1CCCCC1` here?
**A.** Its Potency is inconclusive: 89.1 µM [inhibitor, single point].

**Q.** `CCOc1ccc(C2CC(=O)c3c([nH]c(C(=O)OCC4CCCCC4)c3C)C2)cc1` (centres undefined) was tested. Which max response, negative = inhibition did it give?
**A.** Its max response, negative = inhibition is inactive: -6.58%.

**Q.** `CCCCNC(=S)Nc1ccc(SC(F)F)cc1` was tested. Which Potency did it give?
**A.** The Potency was inconclusive: 79.4 µM [inhibitor, partial curve].

**Q.** How did the max response, negative = inhibition turn out when `CC1C2(C)OC(=N)C(C#N)(C(C)O2)C1(C#N)C#N` (centres undefined) was run?
**A.** The max response, negative = inhibition was inactive: 5.48%.

**Q.** How did the Potency turn out when `CCCCCCCN(C(=O)CCl)c1cccc(C)c1` was run?
**A.** Its Potency is inconclusive: 79.4 µM [inhibitor, partial curve, poor fit].

**Q.** How did the Potency turn out when `Cc1ccc(S(=O)(=O)CCSc2cccc(C(=O)Nc3ccccc3C(=O)O)c2)cc1` was run?
**A.** Its Potency is active: 79.4 µM.

**Q.** Which Potency does the source give for `Cc1ccc(NC(=O)N2CCN(Cc3ccc4c(c3)OCO4)CC2)cc1` here?
**A.** Its Potency is inconclusive: 1.41 µM [inhibitor, partial curve, poor fit].

**Q.** `Cc1cc(Br)c2c(c1)/C(=C/C(=O)c1cccs1)C(=O)N2` was tested. Which Potency did it give?
**A.** Its Potency is inconclusive: 56.2 µM [inhibitor, partial curve, poor fit].

**Q.** `Cc1c(C(=O)N2CCCCC2)c(S(=O)(=O)NCc2ccc(Cl)cc2)c(C)n1C` was tested. Which Potency did it give?
**A.** Its Potency is inconclusive: 4.47 µM [inhibitor, partial curve, poor fit].
